Results published in patent US12680128B2 (priority 2020, dated 2026).
At least one structure is not confirmed: it was looked up by name or label, or the drawing left a doubt.

Columns and labels:
[1] = target: Mycoplasma penetrans M.MpeI CpG DNA methyltransferase, wild type (WT; from PDB 4DKJ sequence with Q68R, K71R, S295P and C-terminal LEHHHHHH tag) (Malacoplasma penetrans, UniProt Q8EVR5, K71R/Q68R/S295P); format: biochemical; settings: 40 μM SAM or CxSAM, 200 nM hemimethylated oligo, serial dilutions of WT M.MpeI, 37° C., 30 minutes
[2] = target: Mycoplasma penetrans M.MpeI CpG DNA methyltransferase variant N374K (SEQ ID NO: 1 lacks His tag; SEQ ID NO: 2 includes His tag) (Malacoplasma penetrans, UniProt Q8EVR5, K71R/N374K/Q68R/S295P); format: biochemical; settings: 40 μM SAM or CxSAM, 200 nM hemimethylated oligo, serial dilutions of M.MpeI N374K, 37° C., 30 minutes; n=3; CxSAM as diastereomeric mixture

Structure (SMILES)	substrate acceptance in oligonucleotide-based assay (resistance to HpaII digestion) [1]	preference for CxSAM over SAM [2] [fold]
Nc1ncnc2c1ncn2[C@@H]1O[C@H](C[S+](CC[C@H](N)C(=O)O)CC(=O)O)[C@@H](O)[C@H]1O (stereo partly drawn) [CxSAM, carboxy-S-adenosyl-L-methionine]	not CxSAM was a substrate	1.3
C[S+](CC[C@H](N)C(=O)O)C[C@H]1O[C@@H](n2cnc3c(N)ncnc32)[C@H](O)[C@@H]1O (stereo partly drawn) [SAM, S-adenosyl-L-methionine]	only SAM and not CxSAM was a substrate	–
